{"source": "patent US9192164B2", "about": "“Membrane sterilization” (SABAN VENTURES PTY LIMITED, priority 2005, dated 2015)", "details": "45 °C", "note": "Read-outs that look alike come from different tables or passages of the source.", "data": [{"substance": "hydrogen peroxide [H2O2]", "values": [{"measurement": "Residual Peroxide", "setting": "Experiment A: 30% initial, 5 s on/15 s off, 0.081 g delivered, material ABS (10 cm^2)", "result": 2.0, "unit": "μg/cm^2"}, {"measurement": "Residual Peroxide", "setting": "Experiment A: 30% initial, 5 s on/15 s off, 0.081 g delivered, material Santoprene (10 cm^2), * below detection level of assay", "result": "0* μg/cm^2"}, {"measurement": "Residual Peroxide", "setting": "Experiment A: 30% initial, 5 s on/15 s off, 0.081 g delivered, material Silicone (10 cm^2)", "result": 2.3, "unit": "μg/cm^2"}, {"measurement": "Residual Peroxide", "setting": "Experiment B: 30% initial, 8 s on/12 s off, 0.165 g delivered, material ABS (10 cm^2)", "result": 5.8, "unit": "μg/cm^2"}, {"measurement": "Residual Peroxide", "setting": "Experiment B: 30% initial, 8 s on/12 s off, 0.165 g delivered, material Santoprene (10 cm^2), * below detection level of assay", "result": "0.0* μg/cm^2"}, {"measurement": "Residual Peroxide", "setting": "Experiment B: 30% initial, 8 s on/12 s off, 0.165 g delivered, material Silicone (10 cm^2)", "result": 4, "unit": "μg/cm^2"}, {"measurement": "Residual Peroxide", "setting": "Experiment B: 30% initial, 8 s on/12 s off, 0.165 g delivered, material Stainless steel (10 cm^2), * below detection level of assay", "result": "0.0* μg/cm^2"}, {"measurement": "Residual Peroxide", "setting": "Experiment B: 30% initial, 8 s on/12 s off, 0.165 g delivered, material glass (10 cm^2), * below detection level of assay", "result": "0.0* μg/cm^2"}]}]}
